Screen size: about 230,000 compounds; about 1,500 (0.65%) were called active. Only results without a clear call are listed here; the source files them as inconclusive. Calls follow the shape of the dose curve; as a rule, active = well fitted inhibition curve with a large enough effect; inconclusive = small, poorly fitted or top-dose-only effect; inactive = no such curve, though single readings can be large or run the other way.
Biological target: Lethal(3)malignant brain tumor-like protein 1 (Homo sapiens) (UniProt Q9Y468)
Assay: qHTS Assay for the Inhibitors of L3MBTL1; also: nearly all actives have a fitted effect of over 60% in size
Details: AlphaScreen L3MBTL1–H3K9me1 peptide binding
Potency is read from the fitted curve at half-maximal effect.

Amino acid sequences for entries named in this document (tags omitted).
UniProt Q9Y468, whole entry: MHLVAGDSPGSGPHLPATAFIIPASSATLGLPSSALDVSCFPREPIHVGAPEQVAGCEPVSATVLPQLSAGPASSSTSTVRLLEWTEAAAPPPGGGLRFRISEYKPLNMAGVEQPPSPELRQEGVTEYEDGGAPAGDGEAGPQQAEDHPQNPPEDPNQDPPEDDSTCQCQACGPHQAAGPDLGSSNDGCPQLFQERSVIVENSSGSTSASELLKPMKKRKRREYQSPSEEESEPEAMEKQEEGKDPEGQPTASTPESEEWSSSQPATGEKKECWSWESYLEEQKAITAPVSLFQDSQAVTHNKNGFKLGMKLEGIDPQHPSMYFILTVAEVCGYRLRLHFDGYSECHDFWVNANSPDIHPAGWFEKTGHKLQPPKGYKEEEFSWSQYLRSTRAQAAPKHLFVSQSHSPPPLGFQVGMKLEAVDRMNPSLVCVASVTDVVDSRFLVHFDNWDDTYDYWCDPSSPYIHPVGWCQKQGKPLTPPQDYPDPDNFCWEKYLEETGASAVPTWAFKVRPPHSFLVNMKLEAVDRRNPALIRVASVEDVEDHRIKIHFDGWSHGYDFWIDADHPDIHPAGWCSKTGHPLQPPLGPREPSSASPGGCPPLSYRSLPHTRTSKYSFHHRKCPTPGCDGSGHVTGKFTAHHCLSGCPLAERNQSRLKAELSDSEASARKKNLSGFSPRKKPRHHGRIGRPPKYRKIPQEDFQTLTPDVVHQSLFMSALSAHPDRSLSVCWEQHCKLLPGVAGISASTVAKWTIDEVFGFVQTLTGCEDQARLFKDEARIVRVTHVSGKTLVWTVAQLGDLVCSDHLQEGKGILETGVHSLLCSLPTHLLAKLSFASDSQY

Question: Which Potency does the source give for CC(C)c1ccc(NC2CCN(C(=O)OC(C)(C)C)CC2)cc1 here?
Answer: inconclusive: 31.6 µM
